In the supplement of paper PMC7661543:
The effect of the compound repeats well; differences between the knockouts mostly do not.

Tested on: MDA-MB-231
Test: relative cell number vs DMSO control (72 h) (% of DMSO); higher = less growth inhibition (more cells)
Protocol: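 QMAP-Seq: a pool of 5 breast cancer cell lines (ZR-75-1, SKBR3, HCC-38, MDA-MB-231, BT-20), each carrying 12 doxycycline-inducible Cas9 sgRNA perturbations (11 knockouts plus non-targeting sgNT), was treated with compounds for 72 h at four 10-fold doses (10 nM-10 uM or 1 nM-1 uM range). Barcodes were amplified and sequenced, and cell number was interpolated from 293T spike-in standard curves. The result is expressed as % of the median of DMSO wells. Two biological replicates.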

C[C@]12CC[C@@H]3c4ccc(O)cc4C[C@@H](CCCCCCCCC[S+]([O-])CCCC(F)(F)C(F)(F)F)[C@H]3[C@@H]1CC[C@@H]2O (some centres not stated) [Fulvestrant]
Details | relative cell number
sgRNA knockout: sgATF3, 10 nM | 89.4
sgRNA knockout: sgATF3, 100 nM | 105
sgRNA knockout: sgATF3, 1000 nM | 104
sgRNA knockout: sgATF3, 10000 nM | 86.2
sgRNA knockout: sgATF4, 10 nM | 122
sgRNA knockout: sgATF4, 100 nM | 77
sgRNA knockout: sgATF4, 1000 nM | 74.5
sgRNA knockout: sgATF4, 10000 nM | 93.1
sgRNA knockout: sgATF6, 10 nM | 81.9
sgRNA knockout: sgATF6, 100 nM | 73
sgRNA knockout: sgATF6, 1000 nM | 109
sgRNA knockout: sgATF6, 10000 nM | 82.8
sgRNA knockout: sgATG7, 10 nM | 93.3
sgRNA knockout: sgATG7, 100 nM | 77.8
sgRNA knockout: sgATG7, 1000 nM | 93.3
sgRNA knockout: sgATG7, 10000 nM | 95.2
sgRNA knockout: sgERN1, 10 nM | 107
sgRNA knockout: sgERN1, 100 nM | 90.9
sgRNA knockout: sgERN1, 1000 nM | 129
sgRNA knockout: sgERN1, 10000 nM | 84.3
sgRNA knockout: sgHSF1, 10 nM | 97.6
sgRNA knockout: sgHSF1, 100 nM | 83.2
sgRNA knockout: sgHSF1, 1000 nM | 112
sgRNA knockout: sgHSF1, 10000 nM | 88.7
sgRNA knockout: sgHSF2, 10 nM | 89.9
sgRNA knockout: sgHSF2, 100 nM | 117
sgRNA knockout: sgHSF2, 1000 nM | 100
sgRNA knockout: sgHSF2, 10000 nM | 78
sgRNA knockout: sgKEAP1, 10 nM | 89.5
sgRNA knockout: sgKEAP1, 100 nM | 91.9
sgRNA knockout: sgKEAP1, 1000 nM | 109
sgRNA knockout: sgKEAP1, 10000 nM | 94.1
sgRNA knockout: sgNFE2L2, 10 nM | 116
sgRNA knockout: sgNFE2L2, 100 nM | 75.6
sgRNA knockout: sgNFE2L2, 1000 nM | 112.29
sgRNA knockout: sgNFE2L2, 10000 nM | 80.8
sgRNA knockout: sgSLC35F2, 10 nM | 90.7
sgRNA knockout: sgSLC35F2, 100 nM | 86.6
sgRNA knockout: sgSLC35F2, 1000 nM | 105
sgRNA knockout: sgSLC35F2, 10000 nM | 85.666
sgRNA knockout: sgXBP1, 10 nM | 92.1
sgRNA knockout: sgXBP1, 100 nM | 87.2
sgRNA knockout: sgXBP1, 1000 nM | 102
sgRNA knockout: sgXBP1, 10000 nM | 78.6

CC[C@H](C)C(=O)O[C@H]1C[C@@H](C)C=C2C=C[C@H](C)[C@H](CC[C@@H]3C[C@@H](O)CC(=O)O3)[C@H]21 [Lovastatin]
Details | relative cell number
sgRNA knockout: sgATF3, 10 nM | 123
sgRNA knockout: sgATF3, 100 nM | 95.1
sgRNA knockout: sgATF3, 1000 nM | 75.86
sgRNA knockout: sgATF3, 10000 nM | 13.9
sgRNA knockout: sgATF4, 10 nM | 122
sgRNA knockout: sgATF4, 100 nM | 103
sgRNA knockout: sgATF4, 1000 nM | 79.4
sgRNA knockout: sgATF4, 10000 nM | 14
sgRNA knockout: sgATF6, 10 nM | 132
sgRNA knockout: sgATF6, 100 nM | 93.3
sgRNA knockout: sgATF6, 1000 nM | 55.6
sgRNA knockout: sgATF6, 10000 nM | 12.5
sgRNA knockout: sgATG7, 10 nM | 113
sgRNA knockout: sgATG7, 100 nM | 68.5
sgRNA knockout: sgATG7, 1000 nM | 96
sgRNA knockout: sgATG7, 10000 nM | 15.5
sgRNA knockout: sgERN1, 10 nM | 103
sgRNA knockout: sgERN1, 100 nM | 69.8
sgRNA knockout: sgERN1, 1000 nM | 102
sgRNA knockout: sgERN1, 10000 nM | 15.1
sgRNA knockout: sgHSF1, 10 nM | 87.8
sgRNA knockout: sgHSF1, 100 nM | 99.9
sgRNA knockout: sgHSF1, 1000 nM | 81.8
sgRNA knockout: sgHSF1, 10000 nM | 15.9
sgRNA knockout: sgHSF2, 10 nM | 103
sgRNA knockout: sgHSF2, 100 nM | 83.2
sgRNA knockout: sgHSF2, 1000 nM | 102
sgRNA knockout: sgHSF2, 10000 nM | 15.4
sgRNA knockout: sgKEAP1, 10 nM | 108
sgRNA knockout: sgKEAP1, 100 nM | 83.3
sgRNA knockout: sgKEAP1, 1000 nM | 82.7
sgRNA knockout: sgKEAP1, 10000 nM | 20.9
sgRNA knockout: sgNFE2L2, 10 nM | 115
sgRNA knockout: sgNFE2L2, 100 nM | 92.1
sgRNA knockout: sgNFE2L2, 1000 nM | 72.4
sgRNA knockout: sgNFE2L2, 10000 nM | 16.2
sgRNA knockout: sgSLC35F2, 10 nM | 85.8
sgRNA knockout: sgSLC35F2, 100 nM | 82.32
sgRNA knockout: sgSLC35F2, 1000 nM | 78.1
sgRNA knockout: sgSLC35F2, 10000 nM | 13.8
sgRNA knockout: sgXBP1, 10 nM | 122
sgRNA knockout: sgXBP1, 100 nM | 86.9
sgRNA knockout: sgXBP1, 1000 nM | 66.9
sgRNA knockout: sgXBP1, 10000 nM | 12.7

O=C(O)CCCc1ccc(N(CCCl)CCCl)cc1 [Chlorambucil]
Details | relative cell number
sgRNA knockout: sgATF3, 10 nM | 106
sgRNA knockout: sgATF3, 100 nM | 90.5
sgRNA knockout: sgATF3, 1000 nM | 102
sgRNA knockout: sgATF3, 10000 nM | 63.3
sgRNA knockout: sgATF4, 10 nM | 81.6
sgRNA knockout: sgATF4, 100 nM | 89.1
sgRNA knockout: sgATF4, 1000 nM | 58.7
sgRNA knockout: sgATF4, 10000 nM | 63.5
sgRNA knockout: sgATF6, 10 nM | 75.8
sgRNA knockout: sgATF6, 100 nM | 108
sgRNA knockout: sgATF6, 1000 nM | 91.8
sgRNA knockout: sgATF6, 10000 nM | 79.8
sgRNA knockout: sgATG7, 10 nM | 94.5
sgRNA knockout: sgATG7, 100 nM | 94.5
sgRNA knockout: sgATG7, 1000 nM | 93.1
sgRNA knockout: sgATG7, 10000 nM | 46.8
sgRNA knockout: sgERN1, 10 nM | 102
sgRNA knockout: sgERN1, 100 nM | 83.9
sgRNA knockout: sgERN1, 1000 nM | 103
sgRNA knockout: sgERN1, 10000 nM | 53.7
sgRNA knockout: sgHSF1, 10 nM | 90.4
sgRNA knockout: sgHSF1, 100 nM | 95.3
sgRNA knockout: sgHSF1, 1000 nM | 93.6
sgRNA knockout: sgHSF1, 10000 nM | 59.6
sgRNA knockout: sgHSF2, 10 nM | 103
sgRNA knockout: sgHSF2, 100 nM | 83.4
sgRNA knockout: sgHSF2, 1000 nM | 85.1
sgRNA knockout: sgHSF2, 10000 nM | 79.8
sgRNA knockout: sgKEAP1, 10 nM | 97.5
sgRNA knockout: sgKEAP1, 100 nM | 83.6
sgRNA knockout: sgKEAP1, 1000 nM | 117
sgRNA knockout: sgKEAP1, 10000 nM | 73.6
sgRNA knockout: sgNFE2L2, 10 nM | 96.1
sgRNA knockout: sgNFE2L2, 100 nM | 60.7
sgRNA knockout: sgNFE2L2, 1000 nM | 96.1
sgRNA knockout: sgNFE2L2, 10000 nM | 42.7
sgRNA knockout: sgSLC35F2, 10 nM | 118
sgRNA knockout: sgSLC35F2, 100 nM | 90.7
sgRNA knockout: sgSLC35F2, 1000 nM | 85.2
sgRNA knockout: sgSLC35F2, 10000 nM | 68.5
sgRNA knockout: sgXBP1, 10 nM | 109
sgRNA knockout: sgXBP1, 100 nM | 105
sgRNA knockout: sgXBP1, 1000 nM | 84.1
sgRNA knockout: sgXBP1, 10000 nM | 56.6
